Data as given in publication PMC7819943, “Rice protein-binding microarrays: a tool to detect cis-acting elements near promoter regions in rice”.
This is one part of the list.

Target: T1, OsSMF1 (Oryza sativa, UniProt Q6ZLB0 1-436)
T1 sequence: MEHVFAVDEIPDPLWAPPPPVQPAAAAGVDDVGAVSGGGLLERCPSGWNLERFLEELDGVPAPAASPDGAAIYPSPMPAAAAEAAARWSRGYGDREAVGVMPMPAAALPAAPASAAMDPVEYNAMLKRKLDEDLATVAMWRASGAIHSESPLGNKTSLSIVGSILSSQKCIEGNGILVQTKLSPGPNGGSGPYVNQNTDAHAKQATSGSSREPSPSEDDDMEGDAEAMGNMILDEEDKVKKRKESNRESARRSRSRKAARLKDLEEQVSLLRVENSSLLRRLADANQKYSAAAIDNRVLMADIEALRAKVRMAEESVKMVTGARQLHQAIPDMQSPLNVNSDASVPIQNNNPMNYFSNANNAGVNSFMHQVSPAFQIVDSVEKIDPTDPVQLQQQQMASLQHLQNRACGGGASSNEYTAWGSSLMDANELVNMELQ
Experiment: protein-binding microarray (RPBM); PBS, 2% BSA, 51.3 ng/ul salmon testes DNA, 50 uM zinc acetate, 200 nM TF, 25 C, 1 h; high values mean tight binding
Conditions: protein: recombinant; tags: N-terminal polyhistidine and DsRed monomer fusion (pET32a); chain copies: 2; label: CyDye5-dUTP incorporated in the synthesized complementary strand; 3' TTTTT single-stranded linker to array surface; dsDNA, one strand shown
How it was run: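 Transcription factors were made in E. coli BL21-CodonPlus as N-terminal fusions to a polyhistidine tag and DsRed, then purified on Ni–NTA. After primer extension with Cy5-dUTP and blocking with 2% BSA, a custom Agilent array was exposed for 1 h at 25 °C to 200 nM protein in PBS, 2% BSA, salmon testes DNA and 50 µM zinc acetate. Washed arrays were scanned on an Axon 4000B, and the binding signal is per-feature fluorescence intensity in arbitrary units.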

| Sequence | binding signal |
| --- | --- |
| ATGCTCCCGCCGCCGCCTCCGCCGCAATCCGAGTCATCGGCGGAGTCACCTAGTGCAG | 7570 fluorescence intensity (a.u.) |
| CATCGCTGTTAACCCAGCGACCAGCGTGGCAGAGCAAACTCGGAGTCACCTAGTGCAG | 3250 fluorescence intensity (a.u.) |
| CAATGCTAGCCGCGCAATCTGCGCGGGCCACCATGCTATTCGGAGTCACCTAGTGCAG | 3430 fluorescence intensity (a.u.) |
| AACCTAATTAAAGATGATGATTCACCGGCAATCATTGCAACGGAGTCACCTAGTGCAG | 4040 fluorescence intensity (a.u.) |
| CGTCTTGACATATGGGGCCACGCTGACTCACCCGCCACATCGGAGTCACCTAGTGCAG | 11200 fluorescence intensity (a.u.) |
| TGTCAAATCATGACGCAATTAGGCTCAGAAGATTCGTCTCCGGAGTCACCTAGTGCAG | 4030 fluorescence intensity (a.u.) |
| AAGATTAAAGCATGCAGGAGGGCGCCTATTAAAATGGACGCGGAGTCACCTAGTGCAG | 17400 fluorescence intensity (a.u.) |
| AGCACGGACATATTACTAGTTACATTAAATATTAGTCAAACGGAGTCACCTAGTGCAG | 33800 fluorescence intensity (a.u.) |
| ACAGGTGGGTGGATTGAGGATAAACTATTGGTTCCTACAGCGGAGTCACCTAGTGCAG | 3390 fluorescence intensity (a.u.) |
| GACAAACTCCAGGGCTTGATGTTCCATGTCAGCACGTTGGCGGAGTCACCTAGTGCAG | 4040 fluorescence intensity (a.u.) |
| ACACGCCACGCCGCCACCTCCACTTCGTTAACCCTTCTCCCGGAGTCACCTAGTGCAG | 5410 fluorescence intensity (a.u.) |
| AGTGGAGAGAGTACCTACCCCAAGACCCTGATAAATTGGTCGGAGTCACCTAGTGCAG | 3160 fluorescence intensity (a.u.) |
| CACTACCGACCTAGACCGCCTTGGCTGCCACGAAACCCCTCGGAGTCACCTAGTGCAG | 4096 fluorescence intensity (a.u.) |
| CCCAAACCTTATCTCCTGGAGTAGTCACCTCCACGAACCCCGGAGTCACCTAGTGCAG | 3190 fluorescence intensity (a.u.) |
| ATTCAGTACGATTAATTTATTCTGGACGGAGGGAGGGAGTCGGAGTCACCTAGTGCAG | 3400 fluorescence intensity (a.u.) |
| TGATTACTAGTACTCCCACGTGGCCACGTCCTACCCCATCCGGAGTCACCTAGTGCAG | 14800 fluorescence intensity (a.u.) |
| ATATATATATATATATATATATATATATATATATATATATCGGAGTCACCTAGTGCAG | 3370 fluorescence intensity (a.u.) |
| TATTTGTGAGAGTGTGAACGGTTGTGACTACCCTCAGTCCCGGAGTCACCTAGTGCAG | 3880 fluorescence intensity (a.u.) |
| ATCCAGTATATAAACATCCGATGTGACGTGGACTAAAGTTCGGAGTCACCTAGTGCAG | 19000 fluorescence intensity (a.u.) |
| CCGCCGCCGCCCGATCGCCGCGTCCTCCGCTCCGCACCCTCGGAGTCACCTAGTGCAG | 3490 fluorescence intensity (a.u.) |
| CCTGTGTAAATTCCTTGTGAATTCTTGTGTAAAATTCTGACGGAGTCACCTAGTGCAG | 16600 fluorescence intensity (a.u.) |

| Sequence | binding signal |
| --- | --- |
| AGGAGGAGCGGTGCGACAACTGATGTGGCAGCTCCTCGACCGGAGTCACCTAGTGCAG | 6750 fluorescence intensity (a.u.) |
| TGCGACCACGCGGCGATCCAACGGCCACGGAGACGCTCCTCGGAGTCACCTAGTGCAG | 4040 fluorescence intensity (a.u.) |
| TGATTGTAAAAGTAAAATCTAGCCTACGTATTGCAAGATTCGGAGTCACCTAGTGCAG | 3260 fluorescence intensity (a.u.) |
| TTTTCTATAAATTTAGTCAAATATAACAAAGTTTGATTAGCGGAGTCACCTAGTGCAG | 42600 fluorescence intensity (a.u.) |
| AGTCCACAAAGGCATCATCGCATACGTGGGTTGCCGAATACGGAGTCACCTAGTGCAG | 4400 fluorescence intensity (a.u.) |
| AACCACACGGATCGACGTGACTGTTGCTCCGCTTGAGATACGGAGTCACCTAGTGCAG | 3740 fluorescence intensity (a.u.) |
| GTTGTATATATATTTTAATGAATGTGAAACACGGTGATGGCGGAGTCACCTAGTGCAG | 31100 fluorescence intensity (a.u.) |
| ACCGCTCGATATCCAGCTAGCTGACTAGGTGTGCTCTACCCGGAGTCACCTAGTGCAG | 4630 fluorescence intensity (a.u.) |
| ATCAGCCCCGCCTTCGCCACGCACCACGTCTGCCCGCCCGCGGAGTCACCTAGTGCAG | 6470 fluorescence intensity (a.u.) |
| TCCCGCGTCGTCTTCGCCGCCGCCACCGCCGCCACGTCGCCGGAGTCACCTAGTGCAG | 10800 fluorescence intensity (a.u.) |
| TCCTCCATGATTACAGTCGACCAGGTGATTGGACGGTGCGCGGAGTCACCTAGTGCAG | 3490 fluorescence intensity (a.u.) |
| CTTCCCGCCGCCGCCACTGCCACGAACAGTTCGCTCACCGCGGAGTCACCTAGTGCAG | 3200 fluorescence intensity (a.u.) |
| CCTCCCTCTATGGCCACGCCACCGCCGCTGCCCCTCCTCTCGGAGTCACCTAGTGCAG | 3710 fluorescence intensity (a.u.) |
| CAGGAATTTCCACGTCAATGCCGGAATAAATCGGCAGGGTCGGAGTCACCTAGTGCAG | 10300 fluorescence intensity (a.u.) |
| TGGTAACTAAACTGCCATGTCAGGGACAGATCGACCAGTGCGGAGTCACCTAGTGCAG | 5160 fluorescence intensity (a.u.) |
| CAAGCAATGATTGGATTGGATGCTGACGATGAAACGAACCCGGAGTCACCTAGTGCAG | 3380 fluorescence intensity (a.u.) |
| CGCCGCCTCGCCCACCGCGCACTCGTCCAGGGCGGCTCCACGGAGTCACCTAGTGCAG | 3450 fluorescence intensity (a.u.) |
| GTGGATGTGACACGTGGCGGATCATGGTTGGTCCGTGATTCGGAGTCACCTAGTGCAG | 19100 fluorescence intensity (a.u.) |
| TTCGTGGATGGGGTGGGCTCTTTCTCACTGTTATATTGTCCGGAGTCACCTAGTGCAG | 3950 fluorescence intensity (a.u.) |
| CCACGGATTTAGATAACACGTCACGAGATATACACCCATACGGAGTCACCTAGTGCAG | 14600 fluorescence intensity (a.u.) |
| CGAGTTTAGGGACCGCGATGACACAGCGGTACAAGTTTGTCGGAGTCACCTAGTGCAG | 3510 fluorescence intensity (a.u.) |

As a working copy, part of the list above:

| Sequence | binding signal |
| --- | --- |
| CAGGAATTTCCACGTCAATGCCGGAATAAATCGGCAGGGTCGGAGTCACCTAGTGCAG | 10300 fluorescence intensity (a.u.) |
| TGGTAACTAAACTGCCATGTCAGGGACAGATCGACCAGTGCGGAGTCACCTAGTGCAG | 5160 fluorescence intensity (a.u.) |
